The target in the data set is T1, Elk-1 (human) (UniProt P19419).
T1 sequence (looked up, limits assumed): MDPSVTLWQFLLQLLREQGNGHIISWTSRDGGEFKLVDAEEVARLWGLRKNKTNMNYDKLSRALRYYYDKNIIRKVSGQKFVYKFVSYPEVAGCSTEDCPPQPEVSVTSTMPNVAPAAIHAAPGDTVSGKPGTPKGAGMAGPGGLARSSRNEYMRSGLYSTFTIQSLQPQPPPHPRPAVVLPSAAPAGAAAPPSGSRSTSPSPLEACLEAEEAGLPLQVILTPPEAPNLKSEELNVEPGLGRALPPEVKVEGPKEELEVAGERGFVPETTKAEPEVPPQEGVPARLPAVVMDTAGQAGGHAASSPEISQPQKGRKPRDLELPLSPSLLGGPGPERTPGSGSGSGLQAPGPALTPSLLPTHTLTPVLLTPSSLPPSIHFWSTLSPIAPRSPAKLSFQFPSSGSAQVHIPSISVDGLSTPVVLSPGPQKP
Kind of data set: EMSA. As to conditions: 1 ug Elk-1, 10 mM MgCl2, no poly(dI-dC), 50 mM HEPES pH 7.5, 10 mM MgCl2, 5% glycerol, 1 mM DTT, 0.3% BSA, 1 mM EDTA, 1 h on ice, 6% gel (HEPES buffer pH 6.3), commercial protein.

For at least one entry, the source does not settle the construct or the ends of the probe. A weaker result is weaker than the reference pair of the same experiment. Where a protein sequence is shown, tags need not be part of it.

Regarding “CATCTCCGGGGGACACGCGAA (double strand) [GRIN2B G allele (rs3764030 G)]”, the binding result is recorded as “binds more weakly”.

The values above are taken from paper PMC5425128, “Functional human GRIN2B promoter polymorphism and variation of mental processing speed in older adults”.
